No constants are given. Whether binding was seen depends on the method and setting. In cells and extracts the contact can be indirect. A yes stands for co-enrichment or nearness to the bait. Other partners may have been found.
Molecular target: Med17-HA (S. cerevisiae (endogenous in S288c)) (UniProt P32569)
Test: affinity purification with mass spectrometry; CoIP of Med17-HA on anti-HA magnetic beads from cryoground yeast lysate, 2 h at 4 °C; 20 mM HEPES pH 7.5, 300 mM KOAc, 10% glycerol, 0.01% NP-40, 6 mM MnSO4, 1 mM DTT, Cyanase nuclease; parallel control CoIP from 15N-labelled wild type cells, mixing after purification (MAP); GeLC-MS/MS, three biological replicates

Chains of the proteins cited; added tags and fusions are not shown.
UniProt P32569: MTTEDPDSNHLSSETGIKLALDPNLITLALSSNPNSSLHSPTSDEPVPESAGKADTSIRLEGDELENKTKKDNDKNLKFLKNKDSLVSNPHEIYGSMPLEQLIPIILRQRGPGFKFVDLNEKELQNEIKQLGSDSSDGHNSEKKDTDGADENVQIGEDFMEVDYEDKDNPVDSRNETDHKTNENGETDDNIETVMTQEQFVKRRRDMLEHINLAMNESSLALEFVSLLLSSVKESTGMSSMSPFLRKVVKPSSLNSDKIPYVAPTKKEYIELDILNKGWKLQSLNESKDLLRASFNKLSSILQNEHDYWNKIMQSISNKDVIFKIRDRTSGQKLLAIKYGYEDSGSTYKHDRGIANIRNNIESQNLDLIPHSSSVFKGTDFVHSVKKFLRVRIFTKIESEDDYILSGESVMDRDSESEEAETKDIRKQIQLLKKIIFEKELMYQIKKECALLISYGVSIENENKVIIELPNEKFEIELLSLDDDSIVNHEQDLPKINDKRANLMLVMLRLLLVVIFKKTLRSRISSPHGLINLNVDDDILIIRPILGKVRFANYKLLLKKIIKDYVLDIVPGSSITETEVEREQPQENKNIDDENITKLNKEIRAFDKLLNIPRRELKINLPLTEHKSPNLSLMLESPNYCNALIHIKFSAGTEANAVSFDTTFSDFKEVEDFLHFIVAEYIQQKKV

B1: Noc3 (protein, UniProt Q07896 1-663)
chain: MAKRNRSQFRIQERTAKKRKHEDSLLEGNVFQNAPEDMDENTIYSAKGSSWDEEEQDYEMVPRKNRSDTSNLVEGLPIKVNGKVERKLHKAQEKPKDDDEEDEDSNDSSEDDEGPNEEQEAEAKEDEPDTEEKILQLKEDIADLVTKVMEEPEENTAALGRLCKMVESKNPNTCKFSMLALVPVFKSIIPGYRIRPLTETEKKEKVSKEVSKLRNFEQALVYNYKNYVGRLQSLSKTPSNAAPIQVSLGILATQAAKELISTASHFNFRTDIFTLLLRRICKPRISTDPTSIQIIQTFETLLNEDEEGSISFEILRIFNKILKTRNFNIEESVLNMLLSLDVLHDYDPNTKLKGNVSAPKLKKKDRVHLSKKQRKARKEMQQIEEEMRNAEQAVSAEERERNQSEILKIVFTIYLNILKNNAKTLIGSVLEGLTKFGNMANFDLLGDFLEVMKELISDTEFDNLSSAEVRKALLCIVSAFSLISNTQYMKVNVDLSKFVDGLYALLPYICLDADIELSYRSLRLADPLNNEIIKPSVNVSTKAELLLKALDHVFFRSKSGTKERATAFTKRLYMCISHTPEKTSIAILKFIDKLMNRYPEISGLYSSEDRIGNGHFIMEADNPSRSNPEAATLWDNALLEKHYCPVVTKGLRSLSSRSKECSK
B1 was tested, and the binding was “binds”.

B2: Nop2 (protein, UniProt P40991 1-618)
chain: MGSRRHKNKQAAPPTLEEFQARKEKKANRKLEKGKRPSTTQGDEVSDRKKKKSKPFKKSRKEEEEVVEEDKDLPEVDLEELSKARKSLFDDEEDDDEAGLVDEELKDEFDLEQEYDYDEDEDNDAHPIFSDDDDEADLEELNAQNMEALSKKLDEEEAEEAEEAEMELVEAENMQPRADILPTEEQEEMMAQETPNLTSTRTRMIEIVKVLENFKTLGAEGRSRGEYVDRLLKDICEYFGYTPFLAEKLFNLFSPAEAMEFFEANEIARPITIRTNTLKTRRRDLAQTLVNRGVNLQPIGSWTKVGLQIFDSQVPIGATPEYLAGHYILQAASSFLPVIALDPHENERILDMAAAPGGKTTYISAMMKNTGCVFANDANKSRTKSLIANIHRLGCTNTIVCNYDAREFPKVIGGFDRILLDAPCSGTGVIGKDQSVKVSRTEKDFIQIPHLQKQLLLSAIDSVDCNSKHGGVIVYSTCSVAVEEDEAVIDYALRKRPNVKLVDTGLAIGKEAFTSYRGKKFHPSVKLARRYYPHTYNVDGFFVAKFQKIGPSSFDDNQASAKEKETAARKEALEEGIIHSDFATFEDEEDDKYIEKSVKNNLLKKGVNPKAKRPSNEK
For B2, the binding was “binds”.

B3: Nop4 (protein, UniProt P37838 1-685)
chain: MEETIENVEVPSSNVSKQNDDGLDMKTLFVRSIPQDVTDEQLADFFSNFAPIKHAVVVKDTNKRSRGFGFVSFAVEDDTKEALAKARKTKFNGHILRVDIAKRRDRSKKTSEVVEKSTPESSEKITGQNNEDEDDADGEDSMLKGKPKLIIRNMPWSCRDPVKLKKIFGRYGTVVEATIPRKRDGKLCGFAFVTMKKISNCRIALENTKDLKIDGRKVAVDFAVQKNRWEDYKKAQPEMNDKDDNESGNEDAEENHDDEEDENEEEDRQVDQASKNKESKRKAQNKREDFSVFVRNVPYDATEESLAPHFSKFGSVKYALPVIDKSTGLAKGTAFVAFKDQYTYNECIKNAPAAGSTSLLIGDDVMPEYVYEGRVLSITPTLVREDAGRMAEKNAAKRKEALGKAPGEKDRRNLYLLNEGRVVEGSKMADLLTNTDMEIREKSYKLRVEQLKKNPSLHLSMTRLAIRNLPRAMNDKALKALARKAVVEFATEVKNKERHPLSKEEIIRSTKEKYKFMGPDEIEAQKKKDKKSGVVKQAKVIMEVKGSTAGRSRGYGFVEFRDHKNALMGLRWLNCHAVTSDEILEGLNDDEKKQVDNDLGKGRRLCVEFAIENSNVVKRRREQLKQARTKRTRPDNEDTGDVGESENKKPKKEEATTPTNPDDKKMGDDIKRIIGFKRKRKHAKK
With B3 the binding was “binds”.

B4: Nop13 (protein, UniProt P53883 1-403)
chain: MSETELSKEDAVTKKDNEEQVKKALLDPTKKRKAEDEIEIDLKSSIPLSKKQKRLLRRGKVTLEELNAKYNIDPKSIEEYKEDAEKKKSGASEKDAQGEESTINTPTGDESGEVVKKKKKDENKYGVWIGNLSFDTTKDDLVRFFIAKTKDNEDEKSRVTEQDITRLSMPRVAAKNSNAMKNKGFCYMFFKNVEQMKAVLELSESHLNGRNMLIKDSENYSGRPDKDDLVAMSKNPPSRILFVGNLSFDVTDDLLRKHFQHCGDIVKIRMATFEDSGKCKGFAFIDFKNEEGSTNALKDKSCRKIAGRPLRMEYGEDRSKRQVRKKVENVSRNNSSSFDISNNKGYDRAGQDNGSKPEYKRSNANRRPPVDSNNRTKSSVALATAQRGSAAIVPSQGKKVKFD
For B4, the binding was “binds”.
